One molecule from patent publication US20120023600A1 can be followed below.

No constants are given. Whether binding was seen depends on the method and setting. Some entries that bind do so weakly or less than the wild type.

Test [1] concerns the target cynomolgus DKK1 (cynomolgus monkey (Macaca fascicularis)). The experiment in a line: SET (BioVeris).
For test [2], the target named is T1, rat DKK1 (Novartis) (rat) (UniProt A6I0Z0).
T1 sequence: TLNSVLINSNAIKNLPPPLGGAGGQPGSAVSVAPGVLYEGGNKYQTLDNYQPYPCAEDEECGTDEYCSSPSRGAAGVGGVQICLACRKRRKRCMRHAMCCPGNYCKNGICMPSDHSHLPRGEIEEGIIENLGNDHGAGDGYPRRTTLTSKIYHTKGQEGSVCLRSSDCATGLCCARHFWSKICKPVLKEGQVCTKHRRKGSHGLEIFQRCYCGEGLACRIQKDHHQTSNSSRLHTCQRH
The experiment in a line: SET (BioVeris).

B1: anti-DKK1/4 antibody (antibody, V domains shown)
VH: QVQLVESGGGLVQPGGSLRLSCAASGFTFSSYWMSWVRQAPGKGLEWVSGISYSGSNTHYADSVKGRFTISRDNSKNTLYLQMNSLRAEDTAVYYCARMGIDLDYWGQGTLVTVSS
VL: DIALTQPASVSGSPGQSITISCTGTSSDVGGFNYVSWYQQHPGKAPKLMIHDGSNRPSGVSNRFSGSKSGNTASLTISGLQAEDEADYYCQSWDVSPITAVFGGGTKLTVLG
On to B1, for which the binding entry in test [1] and in test [2] was “binds” each time.
